This passage reports binding results from patent US20140255415A1 (Novartis, published 2014).

In experiment [1] the target is cynomolgus monkey LINGO-1 expressed on CHO-K1 cells (CHO-K1-cmLINGO-1) (cynomolgus monkey). Briefly: FACS saturation binding on transfected CHO-K1 cells, Fab format.
For experiment [2], the target named is human LINGO-2 expressed on CHO-K1 cells (CHO-K1-hLINGO-2) (human). Briefly: FACS saturation binding on CHO-K1-hLINGO-2 cells, Fab format.
Experiment [3] concerns the target cynomolgus monkey LINGO-1 expressed on CHO-K1 cells (CHO-K1-cmLINGO-1) (cynomolgus monkey). Briefly: FACS saturation binding on transfected CHO-K1 cells, IgG4 format.
Experiment [4] addresses human LINGO-2 expressed on CHO-K1 cells (CHO-K1-hLINGO-2) (human). In words: FACS saturation binding on CHO-K1-hLINGO-2 cells, IgG4 format.

Results are given in words; binding and its absence hold for the method and conditions named. Binding can be weak; no strength is given.

B1: anti-LINGO-1 Fab 4785 (Fab, V domains shown)
VH: QVQLQQSGPGLVKPSQTLSLTCAISGDSVSDNSAAWSWIRQSPGRGLEWLGLIYLRSKWDNDYAVSVKSRITINPDTSKNQFSLQLNSVTPEDTAVYYCARTGRADEFDVWGQGTLVTVSS
VL: DIVLTQPPSVSGAPGQRVTISCSGSSSNIGNNYVSWYQQLPGTAPKLLISRNSKRPSGVPDRFSGSKSGTSASLAITGLQSEDEADYYCSTYDTFSIVFGGGTKLTVLG
With B1, the binding entry in experiment [1] and in experiment [2] was “binds” throughout.

B2: anti-LINGO-1 IgG4 antibody 4785 (antibody, V domains shown)
VH: QVQLQQSGPGLVKPSQTLSLTCAISGDSVSDNSAAWSWIRQSPGRGLEWLGLIYLRSKWDNDYAVSVKSRITINPDTSKNQFSLQLNSVTPEDTAVYYCARTGRADEFDVWGQGTLVTVSS
VL: DIVLTQPPSVSGAPGQRVTISCSGSSSNIGNNYVSWYQQLPGTAPKLLISRNSKRPSGVPDRFSGSKSGTSASLAITGLQSEDEADYYCSTYDTFSIVFGGGTKLTVLG
As to B2, the binding entry in experiment [3] and in experiment [4] was “binds” throughout.
